# Some of the results follow.
# How the values were obtained:
# Assay in all cases: glycan array binding signal (z-score within array); higher = stronger binding
# Settings in all cases: glycan notation: IUPAC condensed, linker removed
# [1] = target: Fuc(a1-2)Gal6S(b1-3)GlcNAc6S
# In short: (§1)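 Glycan array binding is given as a within-array Z-score, which can be read as non-binding when negative. The arrays, 3228 of them, came from the Consortium for Functional Glycomics database and were retained only where the protein sequence was available. Z-scores were averaged across arrays of the same protein sequence at different concentrations or buffers and across linkers.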
# [2] = target: Fuc(a1-2)Gal6S(b1-4)Glc
# In short: as §1
# [3] = target: Fuc(a1-2)Gal6S(b1-4)Glc6S
# In short: as §1
# [4] = target: Fuc(a1-2)[Gal(a1-3)]Gal
# In short: as §1
# [5] = target: Fuc(a1-2)[Gal(a1-3)]Gal(b1-3)GalNAc
# In short: as §1
# [6] = target: Fuc(a1-2)[Gal(a1-3)]Gal(b1-3)GalNAc(b1-3)Gal(a1-4)Gal(b1-4)Glc
# In short: as §1
# [7] = target: Fuc(a1-2)[Gal(a1-3)]Gal(b1-3)GlcNAc
# In short: as §1
# [8] = target: Fuc(a1-2)[Gal(a1-3)]Gal(b1-3)GlcNAc(b1-2)Man(a1-3)[Fuc(a1-2)[Gal(a1-3)]Gal(b1-3)GlcNAc(b1-2)Man(a1-6)]Man(b1-4)GlcNAc(b1-4)GlcNAc
# In short: as §1
# [9] = target: Fuc(a1-2)[Gal(a1-3)]Gal(b1-3)GlcNAc(b1-2)Man(a1-3)[Fuc(a1-2)[Gal(a1-3)]Gal(b1-3)GlcNAc(b1-2)Man(a1-6)]Man(b1-4)GlcNAc(b1-4)[Fuc(a1-6)]GlcNAc
# In short: as §1
# [10] = target: Fuc(a1-2)[Gal(a1-3)]Gal(b1-3)GlcNAc(b1-3)GalNAc
# In short: as §1
# [11] = target: Fuc(a1-2)[Gal(a1-3)]Gal(b1-3)GlcNAc(b1-6)GalNAc
# In short: as §1
# [12] = target: Fuc(a1-2)[Gal(a1-3)]Gal(b1-4)Glc
# In short: as §1
# [13] = target: Fuc(a1-2)[Gal(a1-3)]Gal(b1-4)GlcNAc
# In short: as §1
# [14] = target: Fuc(a1-2)[Gal(a1-3)]Gal(b1-4)GlcNAc(b1-2)Man
# In short: as §1
# [15] = target: Fuc(a1-2)[Gal(a1-3)]Gal(b1-4)GlcNAc(b1-2)Man(a1-3)[Fuc(a1-2)[Gal(a1-3)]Gal(b1-4)GlcNAc(b1-2)Man(a1-6)]Man(b1-4)GlcNAc(b1-4)GlcNAc
# In short: as §1
# [16] = target: Fuc(a1-2)[Gal(a1-3)]Gal(b1-4)GlcNAc(b1-2)Man(a1-3)[Fuc(a1-2)[Gal(a1-3)]Gal(b1-4)GlcNAc(b1-2)Man(a1-6)]Man(b1-4)GlcNAc(b1-4)[Fuc(a1-6)]GlcNAc
# In short: as §1
# [17] = target: Fuc(a1-2)[Gal(a1-3)]Gal(b1-4)GlcNAc(b1-3)GalNAc
# In short: as §1
# [18] = target: Fuc(a1-2)[Gal(a1-3)]Gal(b1-4)GlcNAc(b1-3)[Fuc(a1-2)[Gal(a1-3)]Gal(b1-4)GlcNAc(b1-6)]GalNAc
# In short: as §1
# [19] = target: Fuc(a1-2)[Gal(a1-3)]Gal(b1-4)GlcNAc(b1-6)GalNAc
# In short: as §1
# [20] = target: Fuc(a1-2)[Gal(a1-3)]Gal(b1-4)[Fuc(a1-3)]Glc
# In short: as §1
# [21] = target: Fuc(a1-2)[Gal(a1-3)]Gal(b1-4)[Fuc(a1-3)]GlcNAc
# In short: as §1
# [22] = target: Fuc(a1-2)[Gal(a1-3)]Gal(b1-4)[Fuc(a1-3)]GlcNAc(b1-3)GalNAc
# In short: as §1
# [23] = target: Fuc(a1-2)[Gal(a1-4)]Gal(b1-4)GlcNAc
# In short: as §1
# [24] = target: Fuc(a1-2)[GalNAc(a1-3)]Gal
# In short: as §1
# [25] = target: Fuc(a1-2)[GalNAc(a1-3)]Gal(b1-3)GalNAc(a1-3)[Fuc(a1-2)]Gal(b1-4)GlcNAc
# In short: as §1
# [26] = target: Fuc(a1-2)[GalNAc(a1-3)]Gal(b1-3)GalNAc(b1-3)Gal(a1-4)Gal(b1-4)Glc
# In short: as §1
# [27] = target: Fuc(a1-2)[GalNAc(a1-3)]Gal(b1-3)GlcNAc
# In short: as §1
# [28] = target: Fuc(a1-2)[GalNAc(a1-3)]Gal(b1-3)GlcNAc(b1-2)Man(a1-3)[Fuc(a1-2)[GalNAc(a1-3)]Gal(b1-3)GlcNAc(b1-2)Man(a1-6)]Man(b1-4)GlcNAc(b1-4)GlcNAc
# In short: as §1
# [29] = target: Fuc(a1-2)[GalNAc(a1-3)]Gal(b1-3)GlcNAc(b1-2)Man(a1-3)[Fuc(a1-2)[GalNAc(a1-3)]Gal(b1-3)GlcNAc(b1-2)Man(a1-6)]Man(b1-4)GlcNAc(b1-4)[Fuc(a1-6)]GlcNAc
# In short: as §1
# [30] = target: Fuc(a1-2)[GalNAc(a1-3)]Gal(b1-3)GlcNAc(b1-3)GalNAc
# In short: as §1
# [31] = target: Fuc(a1-2)[GalNAc(a1-3)]Gal(b1-3)GlcNAc(b1-6)GalNAc
# In short: as §1
# [32] = target: Fuc(a1-2)[GalNAc(a1-3)]Gal(b1-4)Glc
# In short: as §1
# [33] = target: Fuc(a1-2)[GalNAc(a1-3)]Gal(b1-4)GlcNAc
# In short: as §1
# [34] = target: Fuc(a1-2)[GalNAc(a1-3)]Gal(b1-4)GlcNAc(b1-2)Man
# In short: as §1
# [35] = target: Fuc(a1-2)[GalNAc(a1-3)]Gal(b1-4)GlcNAc(b1-2)Man(a1-3)[Fuc(a1-2)[GalNAc(a1-3)]Gal(b1-4)GlcNAc(b1-2)Man(a1-6)]Man(b1-4)GlcNAc(b1-4)GlcNAc
# In short: as §1
# [36] = target: Fuc(a1-2)[GalNAc(a1-3)]Gal(b1-4)GlcNAc(b1-2)Man(a1-3)[Fuc(a1-2)[GalNAc(a1-3)]Gal(b1-4)GlcNAc(b1-2)Man(a1-6)]Man(b1-4)GlcNAc(b1-4)[Fuc(a1-6)]GlcNAc
# In short: as §1
# [37] = target: Fuc(a1-2)[GalNAc(a1-3)]Gal(b1-4)GlcNAc(b1-3)Gal(b1-4)GlcNAc
# In short: as §1
# [38] = target: Fuc(a1-2)[GalNAc(a1-3)]Gal(b1-4)GlcNAc(b1-3)Gal(b1-4)GlcNAc(b1-3)Gal(b1-4)GlcNAc
# In short: as §1
# [39] = target: Fuc(a1-2)[GalNAc(a1-3)]Gal(b1-4)GlcNAc(b1-3)GalNAc
# In short: as §1
# [40] = target: Fuc(a1-2)[GalNAc(a1-3)]Gal(b1-4)GlcNAc(b1-3)[Fuc(a1-2)[GalNAc(a1-3)]Gal(b1-4)GlcNAc(b1-6)]GalNAc
# In short: as §1
# [41] = target: Fuc(a1-2)[GalNAc(a1-3)]Gal(b1-4)GlcNAc(b1-6)GalNAc
# In short: as §1
# [42] = target: Fuc(a1-2)[GalNAc(a1-3)]Gal(b1-4)[Fuc(a1-3)]GlcNAc
# In short: as §1
# [43] = target: Fuc(a1-2)[GalNAc(a1-3)]Gal(b1-4)[Fuc(a1-3)]GlcNAc(b1-3)GalNAc
# In short: as §1
# [44] = target: Fuc(a1-2)[GalNAc(a1-4)]Gal(b1-4)GlcNAc
# In short: as §1
# [45] = target: Fuc(a1-2)[GalNAc(b1-3)]Gal
# In short: as §1
binder,measurement,setting,value
GS13971A-bth-447-22-447 (Bacteroides thetaiotaomicron) (protein) EDVDNERSKGMFSASQSGFSTIEVYDLGPLNKIDLSIAKAGLEDTGGTVTFSVEQSLLDSLNNADGTSYQLLPPECYTIENATYSVSPGGDRRVTGGSLVYDPHKIYNLCGFDELKYVLPLRVSSTGTPMNSDRTATLYGFIVKEAIVRLASTGGDFVVEGGTTTSPMNLDTEISFENEWDLTTSFATKGADYVDNYNSANSTYYIPLPSDFYTLPDVTIAKGKTTGGSAISLLGETLPPGNYLLPVSLGGLSGQGDASINIDKETVANYFVIKQGGPINRDHWTVTANTEEKTGEVSAAYPHNGQTISLIDGEINTFWHSKWQGGEVAPPYEIILDMGKENSVSQLGLIARQNALTSMNLEIYAGDDGETWNLIGKYFFDGSIKTEQMVPVKACDARWIRIYIPTLGSGSSVGHLAEIYVYGTDK,glycan array binding signal (z-score),[1],0.223
same,glycan array binding signal (z-score),[2],0.378
same,glycan array binding signal (z-score),[3],-0.753
same,glycan array binding signal (z-score),[4],0.385
same,glycan array binding signal (z-score),[5],0.434
same,glycan array binding signal (z-score),[6],1.39
same,glycan array binding signal (z-score),[7],0.813
same,glycan array binding signal (z-score),[8],-0.969
same,glycan array binding signal (z-score),[9],-0.385
same,glycan array binding signal (z-score),[10],-0.753
same,glycan array binding signal (z-score),[11],0.614
same,glycan array binding signal (z-score),[12],-0.156
same,glycan array binding signal (z-score),[13],-0.476
same,glycan array binding signal (z-score),[14],-0.936
same,glycan array binding signal (z-score),[15],0.029
same,glycan array binding signal (z-score),[16],-0.543
same,glycan array binding signal (z-score),[17],-0.978
same,glycan array binding signal (z-score),[18],0.521
same,glycan array binding signal (z-score),[19],0.648
same,glycan array binding signal (z-score),[20],0.283
same,glycan array binding signal (z-score),[21],-0.117
same,glycan array binding signal (z-score),[22],1.88
same,glycan array binding signal (z-score),[23],1.4
same,glycan array binding signal (z-score),[24],-0.411
same,glycan array binding signal (z-score),[25],-0.632
same,glycan array binding signal (z-score),[26],-0.418
same,glycan array binding signal (z-score),[27],-0.659
same,glycan array binding signal (z-score),[28],-0.704
same,glycan array binding signal (z-score),[29],-1.44
same,glycan array binding signal (z-score),[30],0.307
same,glycan array binding signal (z-score),[31],0.803
same,glycan array binding signal (z-score),[32],-0.164
same,glycan array binding signal (z-score),[33],-0.506
same,glycan array binding signal (z-score),[34],-0.648
same,glycan array binding signal (z-score),[35],0.044
same,glycan array binding signal (z-score),[36],-1.35
same,glycan array binding signal (z-score),[37],-0.622
same,glycan array binding signal (z-score),[38],-0.196
same,glycan array binding signal (z-score),[39],-1.24
same,glycan array binding signal (z-score),[40],-0.4
same,glycan array binding signal (z-score),[41],0.153
same,glycan array binding signal (z-score),[42],-0.663
same,glycan array binding signal (z-score),[43],0.236
same,glycan array binding signal (z-score),[44],-0.331
same,glycan array binding signal (z-score),[45],-0.502

# Exported with tabs: entries from further up.
binder	measurement	setting	value
GS13971A-bth-447-22-447 (Bacteroides thetaiotaomicron) (protein) EDVDNERSKGMFSASQSGFSTIEVYDLGPLNKIDLSIAKAGLEDTGGTVTFSVEQSLLDSLNNADGTSYQLLPPECYTIENATYSVSPGGDRRVTGGSLVYDPHKIYNLCGFDELKYVLPLRVSSTGTPMNSDRTATLYGFIVKEAIVRLASTGGDFVVEGGTTTSPMNLDTEISFENEWDLTTSFATKGADYVDNYNSANSTYYIPLPSDFYTLPDVTIAKGKTTGGSAISLLGETLPPGNYLLPVSLGGLSGQGDASINIDKETVANYFVIKQGGPINRDHWTVTANTEEKTGEVSAAYPHNGQTISLIDGEINTFWHSKWQGGEVAPPYEIILDMGKENSVSQLGLIARQNALTSMNLEIYAGDDGETWNLIGKYFFDGSIKTEQMVPVKACDARWIRIYIPTLGSGSSVGHLAEIYVYGTDK	glycan array binding signal (z-score)	[12]	-0.156
same	glycan array binding signal (z-score)	[13]	-0.476

# — the supplement of paper PMC8728848
